Results deposited as PubChem BioAssay AID1259405 (NCATS, 2018)
Assay: 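Mouse-designed siRNAs used to find CHO productivity engineering targets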 (primary screen). Cells: Chinese hamster CHO-K1 ovary cells with stable secreted eGFP expression. Reagent: single siRNA against mouse genes, 0.8 pmol siRNA per well (2 µl of 400 nM stock). Time to read-out: 3 days. Measurement: 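Percent of the per-plate non-targeting control median for intracellular GFP per well by laser scanning cytometry and for cell viability by ATP luminescence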. Reading the numbers: GFP, % of control: higher = more GFP per well, higher productivity; viability (ATP), % of control: higher = more viable cells (more ATP). Active means: 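a knock-down is called active if GFP reaches 120% or more of non-targeting control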.
Shown is a random part of about 50,000 reagents tested. Of all reagents, about 4,000 (8%) are marked active. 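Mouse siRNA library applied to hamster cells; one well for each siRNA.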 Reagents against one gene are numbered here. Reagent sequences are not shown.

| gene knocked down | reagent | GFP, % of control | viability (ATP), % of control | Call |
| --- | --- | --- | --- | --- |
| Ttn | 1 | 70.5 | 64.4 | inactive |
| Ttn | 2 | 97.1 | 91.4 | inactive |
| Ttn | 3 | 86.3 | 64.4 | inactive |
| Cyren | 1 | 79.7 | 76.9 | inactive |
| Cyren | 2 | 45.8 | 70.5 | inactive |
| Cyren | 3 | 96.2 | 96.2 | inactive |
| Mro | 1 | 85.5 | 83.8 | inactive |
| Mro | 2 | 133 | 101 | active |
| Mro | 3 | 87.6 | 50.6 | inactive |
| Aspscr1 | 1 | 65.3 | 64.6 | inactive |
| Aspscr1 | 2 | 38.8 | 47.2 | inactive |
| Aspscr1 | 3 | 90.3 | 86.4 | inactive |
| Pdyn | 1 | 77 | 65.8 | inactive |
| Pdyn | 2 | 84.4 | 71.6 | inactive |
| Pdyn | 3 | 43.9 | 73.2 | inactive |

Single entries from the list.
For “GFP, % of control”, Aspscr1 #2 is entered as 38.8
Result for Mro #2 in “viability (ATP), % of control”: 101
Under “viability (ATP), % of control”, Ttn #1 reads 64.4
Under “Call”, Cyren #3 reads inactive

Further results follow.
| gene knocked down | reagent | GFP, % of control | viability (ATP), % of control | Call |
| --- | --- | --- | --- | --- |
| Aass | 1 | 41.5 | 30.3 | inactive |
| Aass | 2 | 65.8 | 53.7 | inactive |
| Aass | 3 | 75.6 | 82.3 | inactive |
| Capn11 | 1 | 126 | 51.5 | active |
| Capn11 | 2 | 30.3 | 34.4 | inactive |
| Capn11 | 3 | 70.7 | 55.2 | inactive |
| Chchd4 | 1 | 104 | 90 | inactive |
| Chchd4 | 2 | 70.3 | 66.2 | inactive |
| Chchd4 | 3 | 110 | 82.2 | inactive |
| Or5p66 | 1 | 99.7 | 67.1 | inactive |
| Or5p66 | 2 | 75.5 | 62.5 | inactive |
| Or5p66 | 3 | 64.1 | 24.1 | inactive |
| E2f2 | 1 | 82.3 | 72.1 | inactive |
| E2f2 | 2 | 122 | 97.8 | active |
| Reg1 | 1 | 94.1 | 84.3 | inactive |
| Reg1 | 2 | 82 | 83.7 | inactive |
| Reg1 | 3 | 56.4 | 96.8 | inactive |
| Alg11 | 1 | 34.6 | 49.9 | inactive |
| Alg11 | 2 | 123 | 74.6 | active |
| Alg11 | 3 | 119 | 86.4 | inactive |
